The other results are listed elsewhere or left out.
Experiments:
Experiment in all cases: log2 fold change, soluble protein after heating vs DMSO (PISA); higher = thermal stabilisation; K562 cells, 10 uM, 30 min; active = over 0.2 and 3.5 SD of the protein, either way, in both replicates (recomputed)
[1] = compound: CS(=O)(=O)c1ccc(-c2cnc(N)c(C(=O)Nc3ccccc3)n2)cc1
Method in brief: (§1)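 Values are thermal stability changes relative to control samples and are taken from duplicates. They are stated as log2 fold changes. Before quantification by TMTpro 16plex LC-MS/MS with equalised channel sums, K562 cells at 2×10^6 cells/mL were treated with 10 μM compound for 30 min, heated in aliquots for 3 min across 48°C-58°C, pooled, extracted in PBS with 0.5% NP-40 at 4°C, and centrifuged at 21,000xg for 90 min to give the soluble supernatant.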

By UniProt entry, the sequences of proteins in these tests, tags left out. Where a name states a change or a piece, a line headed by the entry shows the natural chain unless it says otherwise.
UniProt Q92619: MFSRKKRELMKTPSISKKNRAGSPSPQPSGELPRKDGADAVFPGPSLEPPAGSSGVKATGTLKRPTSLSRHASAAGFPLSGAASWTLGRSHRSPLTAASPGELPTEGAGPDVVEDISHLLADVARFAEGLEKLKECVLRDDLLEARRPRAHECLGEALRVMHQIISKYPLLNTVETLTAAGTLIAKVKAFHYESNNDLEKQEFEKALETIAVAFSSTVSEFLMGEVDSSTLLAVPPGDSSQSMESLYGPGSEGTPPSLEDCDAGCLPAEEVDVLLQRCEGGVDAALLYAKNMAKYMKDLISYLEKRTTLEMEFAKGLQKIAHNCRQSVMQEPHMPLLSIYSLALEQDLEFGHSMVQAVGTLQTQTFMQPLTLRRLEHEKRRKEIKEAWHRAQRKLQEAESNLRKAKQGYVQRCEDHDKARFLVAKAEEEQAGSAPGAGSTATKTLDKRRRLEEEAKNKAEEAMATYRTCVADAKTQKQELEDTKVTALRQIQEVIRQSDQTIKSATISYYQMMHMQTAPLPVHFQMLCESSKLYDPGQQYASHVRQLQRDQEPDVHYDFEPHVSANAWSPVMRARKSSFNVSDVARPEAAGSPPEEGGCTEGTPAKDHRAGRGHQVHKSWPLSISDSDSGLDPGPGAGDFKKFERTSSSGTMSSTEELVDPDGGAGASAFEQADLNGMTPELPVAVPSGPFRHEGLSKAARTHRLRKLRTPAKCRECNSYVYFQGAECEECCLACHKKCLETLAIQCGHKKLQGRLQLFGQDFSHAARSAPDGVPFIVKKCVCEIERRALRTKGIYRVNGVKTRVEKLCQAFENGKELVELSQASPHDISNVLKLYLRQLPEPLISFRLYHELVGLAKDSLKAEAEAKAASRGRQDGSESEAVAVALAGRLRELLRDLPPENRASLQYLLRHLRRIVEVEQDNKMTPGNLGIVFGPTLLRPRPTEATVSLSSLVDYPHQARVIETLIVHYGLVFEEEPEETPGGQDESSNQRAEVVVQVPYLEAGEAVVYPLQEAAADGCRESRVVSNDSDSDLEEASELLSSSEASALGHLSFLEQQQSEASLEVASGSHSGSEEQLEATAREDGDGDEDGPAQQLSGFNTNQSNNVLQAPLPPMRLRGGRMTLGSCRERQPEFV
UniProt Q92888: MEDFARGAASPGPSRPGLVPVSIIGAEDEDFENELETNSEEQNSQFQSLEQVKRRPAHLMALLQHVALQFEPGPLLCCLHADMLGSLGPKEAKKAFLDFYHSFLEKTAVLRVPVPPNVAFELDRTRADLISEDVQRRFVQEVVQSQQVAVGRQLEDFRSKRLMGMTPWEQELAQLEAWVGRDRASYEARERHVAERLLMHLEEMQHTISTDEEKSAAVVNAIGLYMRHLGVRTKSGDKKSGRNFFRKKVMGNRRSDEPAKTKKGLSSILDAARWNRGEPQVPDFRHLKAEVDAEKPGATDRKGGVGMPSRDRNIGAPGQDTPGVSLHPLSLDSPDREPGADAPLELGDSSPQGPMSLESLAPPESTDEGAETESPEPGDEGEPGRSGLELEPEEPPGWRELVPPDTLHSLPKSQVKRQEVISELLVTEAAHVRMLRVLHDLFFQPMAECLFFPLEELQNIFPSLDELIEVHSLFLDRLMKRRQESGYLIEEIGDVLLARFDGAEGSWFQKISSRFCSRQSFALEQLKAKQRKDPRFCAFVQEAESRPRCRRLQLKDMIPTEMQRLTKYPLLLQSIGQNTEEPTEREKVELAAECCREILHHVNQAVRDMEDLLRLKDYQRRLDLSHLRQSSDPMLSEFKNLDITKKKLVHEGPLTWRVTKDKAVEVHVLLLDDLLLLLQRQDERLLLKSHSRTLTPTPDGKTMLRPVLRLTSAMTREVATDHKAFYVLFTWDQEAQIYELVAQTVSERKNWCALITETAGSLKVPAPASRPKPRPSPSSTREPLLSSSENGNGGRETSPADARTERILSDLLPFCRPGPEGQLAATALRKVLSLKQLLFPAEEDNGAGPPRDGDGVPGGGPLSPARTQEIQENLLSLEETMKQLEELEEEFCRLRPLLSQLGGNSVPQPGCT
UniProt Q7Z2E3: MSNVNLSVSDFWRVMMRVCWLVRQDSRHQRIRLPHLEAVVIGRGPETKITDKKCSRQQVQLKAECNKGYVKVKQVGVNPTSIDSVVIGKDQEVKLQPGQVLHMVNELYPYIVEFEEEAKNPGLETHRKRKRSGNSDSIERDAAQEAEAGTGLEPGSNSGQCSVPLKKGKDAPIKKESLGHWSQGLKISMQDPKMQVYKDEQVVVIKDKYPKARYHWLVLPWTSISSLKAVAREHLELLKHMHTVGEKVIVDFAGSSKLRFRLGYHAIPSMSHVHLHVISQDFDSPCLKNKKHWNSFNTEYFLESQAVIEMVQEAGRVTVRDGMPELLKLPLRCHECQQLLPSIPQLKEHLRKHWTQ
UniProt Q9BUR5: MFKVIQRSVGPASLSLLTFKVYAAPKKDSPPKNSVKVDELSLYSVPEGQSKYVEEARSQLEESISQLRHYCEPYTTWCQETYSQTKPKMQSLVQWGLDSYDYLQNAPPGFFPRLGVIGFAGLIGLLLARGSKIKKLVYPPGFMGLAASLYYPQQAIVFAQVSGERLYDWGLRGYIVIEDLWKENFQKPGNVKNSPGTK
UniProt Q4KMQ2: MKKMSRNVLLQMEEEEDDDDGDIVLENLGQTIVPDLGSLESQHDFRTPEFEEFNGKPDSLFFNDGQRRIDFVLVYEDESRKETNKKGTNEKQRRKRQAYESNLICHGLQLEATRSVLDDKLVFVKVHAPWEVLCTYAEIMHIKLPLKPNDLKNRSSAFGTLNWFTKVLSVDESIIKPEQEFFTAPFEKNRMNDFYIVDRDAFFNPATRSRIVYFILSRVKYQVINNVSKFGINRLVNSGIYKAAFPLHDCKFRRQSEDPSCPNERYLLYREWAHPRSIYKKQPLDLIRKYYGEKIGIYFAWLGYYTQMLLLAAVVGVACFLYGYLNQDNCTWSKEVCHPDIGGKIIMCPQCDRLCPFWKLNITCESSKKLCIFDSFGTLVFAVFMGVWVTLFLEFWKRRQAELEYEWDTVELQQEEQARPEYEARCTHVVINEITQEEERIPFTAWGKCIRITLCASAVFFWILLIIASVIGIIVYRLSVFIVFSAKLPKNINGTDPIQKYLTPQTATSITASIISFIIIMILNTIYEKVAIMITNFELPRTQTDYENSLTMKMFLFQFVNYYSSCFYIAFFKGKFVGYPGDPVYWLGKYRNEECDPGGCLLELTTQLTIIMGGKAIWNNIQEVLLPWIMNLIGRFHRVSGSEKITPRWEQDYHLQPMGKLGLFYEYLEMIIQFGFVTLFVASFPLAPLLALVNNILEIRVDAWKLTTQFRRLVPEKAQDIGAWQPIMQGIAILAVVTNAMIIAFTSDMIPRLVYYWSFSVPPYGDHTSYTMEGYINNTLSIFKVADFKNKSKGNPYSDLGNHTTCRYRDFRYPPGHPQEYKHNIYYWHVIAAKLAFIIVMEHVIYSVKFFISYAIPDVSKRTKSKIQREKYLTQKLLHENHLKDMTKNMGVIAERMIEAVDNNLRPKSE
UniProt O43299: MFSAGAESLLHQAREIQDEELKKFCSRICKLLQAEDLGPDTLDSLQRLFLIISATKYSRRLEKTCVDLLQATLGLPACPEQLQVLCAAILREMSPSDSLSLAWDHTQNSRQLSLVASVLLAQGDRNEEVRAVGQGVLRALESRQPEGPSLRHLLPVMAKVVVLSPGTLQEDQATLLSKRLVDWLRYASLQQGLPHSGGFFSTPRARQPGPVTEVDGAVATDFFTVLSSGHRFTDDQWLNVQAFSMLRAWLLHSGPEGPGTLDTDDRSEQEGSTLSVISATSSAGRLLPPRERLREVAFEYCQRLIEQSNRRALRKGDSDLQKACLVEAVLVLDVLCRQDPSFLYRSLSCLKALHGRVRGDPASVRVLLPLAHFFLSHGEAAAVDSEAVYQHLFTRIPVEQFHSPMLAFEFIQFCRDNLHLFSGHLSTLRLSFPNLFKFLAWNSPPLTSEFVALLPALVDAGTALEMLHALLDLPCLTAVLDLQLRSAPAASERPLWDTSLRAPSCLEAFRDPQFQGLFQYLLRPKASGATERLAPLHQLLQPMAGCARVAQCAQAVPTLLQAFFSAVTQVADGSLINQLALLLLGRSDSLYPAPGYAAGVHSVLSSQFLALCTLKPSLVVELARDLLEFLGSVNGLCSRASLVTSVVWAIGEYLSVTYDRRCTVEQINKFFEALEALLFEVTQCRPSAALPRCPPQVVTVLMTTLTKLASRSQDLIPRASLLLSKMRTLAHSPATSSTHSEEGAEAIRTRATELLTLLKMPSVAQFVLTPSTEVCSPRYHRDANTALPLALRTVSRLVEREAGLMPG
UniProt Q9Y587: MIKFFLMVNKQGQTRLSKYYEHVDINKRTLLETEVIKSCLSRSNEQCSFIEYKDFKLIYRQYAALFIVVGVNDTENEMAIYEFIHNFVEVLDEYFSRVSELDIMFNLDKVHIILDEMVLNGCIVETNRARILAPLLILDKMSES
UniProt Q9UJX6, whole entry, looked up: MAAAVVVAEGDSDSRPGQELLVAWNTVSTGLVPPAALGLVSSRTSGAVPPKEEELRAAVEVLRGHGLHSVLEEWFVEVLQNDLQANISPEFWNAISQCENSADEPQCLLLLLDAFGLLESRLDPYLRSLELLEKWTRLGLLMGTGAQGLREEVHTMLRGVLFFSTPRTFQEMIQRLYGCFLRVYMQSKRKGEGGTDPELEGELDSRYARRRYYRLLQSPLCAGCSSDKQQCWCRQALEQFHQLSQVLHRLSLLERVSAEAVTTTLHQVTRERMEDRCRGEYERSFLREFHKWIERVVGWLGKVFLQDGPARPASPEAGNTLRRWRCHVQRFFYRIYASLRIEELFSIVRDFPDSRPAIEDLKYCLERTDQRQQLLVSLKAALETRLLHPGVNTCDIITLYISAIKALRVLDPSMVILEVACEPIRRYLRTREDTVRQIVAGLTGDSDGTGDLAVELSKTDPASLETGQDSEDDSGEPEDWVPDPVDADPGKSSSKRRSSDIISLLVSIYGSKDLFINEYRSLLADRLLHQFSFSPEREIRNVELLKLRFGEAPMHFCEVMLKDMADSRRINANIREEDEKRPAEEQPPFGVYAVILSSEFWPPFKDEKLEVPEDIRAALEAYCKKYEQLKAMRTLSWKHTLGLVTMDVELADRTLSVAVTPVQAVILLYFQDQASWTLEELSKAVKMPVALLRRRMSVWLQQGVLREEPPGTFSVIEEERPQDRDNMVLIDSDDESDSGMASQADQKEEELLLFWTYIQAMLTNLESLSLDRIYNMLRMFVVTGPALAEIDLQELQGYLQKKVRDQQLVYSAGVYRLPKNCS
UniProt P53367: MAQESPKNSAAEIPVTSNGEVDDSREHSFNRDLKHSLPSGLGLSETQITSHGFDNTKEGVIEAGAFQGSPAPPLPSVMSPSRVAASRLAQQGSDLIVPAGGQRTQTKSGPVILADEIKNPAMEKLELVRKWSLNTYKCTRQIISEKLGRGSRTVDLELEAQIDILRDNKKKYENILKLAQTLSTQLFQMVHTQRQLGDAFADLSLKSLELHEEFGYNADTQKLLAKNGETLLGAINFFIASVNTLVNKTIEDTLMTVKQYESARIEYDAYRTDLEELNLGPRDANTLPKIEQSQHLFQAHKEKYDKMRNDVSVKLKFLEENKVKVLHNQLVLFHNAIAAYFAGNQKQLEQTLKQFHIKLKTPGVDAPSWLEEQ
UniProt P53680: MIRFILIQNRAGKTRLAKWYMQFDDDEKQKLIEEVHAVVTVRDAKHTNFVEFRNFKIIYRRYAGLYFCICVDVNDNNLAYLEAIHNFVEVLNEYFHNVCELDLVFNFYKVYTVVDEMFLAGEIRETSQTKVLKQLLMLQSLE
UniProt Q06481, whole entry, looked up: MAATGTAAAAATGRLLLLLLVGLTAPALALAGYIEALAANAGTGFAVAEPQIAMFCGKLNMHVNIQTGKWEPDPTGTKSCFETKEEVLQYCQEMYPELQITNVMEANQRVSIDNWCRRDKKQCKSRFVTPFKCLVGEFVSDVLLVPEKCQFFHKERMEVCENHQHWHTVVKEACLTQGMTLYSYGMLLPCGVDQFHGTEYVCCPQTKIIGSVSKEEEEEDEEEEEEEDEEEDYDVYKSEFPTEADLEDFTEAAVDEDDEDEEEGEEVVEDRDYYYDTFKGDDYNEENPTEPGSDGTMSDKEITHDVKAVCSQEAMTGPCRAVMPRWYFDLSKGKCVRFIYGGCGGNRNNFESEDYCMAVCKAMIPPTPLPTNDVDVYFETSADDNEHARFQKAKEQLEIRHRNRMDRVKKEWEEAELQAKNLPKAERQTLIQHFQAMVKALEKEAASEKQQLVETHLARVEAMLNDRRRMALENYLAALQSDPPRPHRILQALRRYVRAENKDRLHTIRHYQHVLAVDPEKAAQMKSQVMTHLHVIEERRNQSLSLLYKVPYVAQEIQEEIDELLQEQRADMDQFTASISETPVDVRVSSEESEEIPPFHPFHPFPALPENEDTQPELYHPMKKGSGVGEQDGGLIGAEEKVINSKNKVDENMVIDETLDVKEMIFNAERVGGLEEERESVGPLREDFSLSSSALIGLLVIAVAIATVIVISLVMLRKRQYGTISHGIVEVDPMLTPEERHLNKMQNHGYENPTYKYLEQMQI

[2] = compound: C[C@@H](Oc1cc(-c2cnn(C3CCNCC3)c2)cnc1N)c1c(Cl)ccc(F)c1Cl [crizotinib]
Method in brief: as §1

[3] = compound: C[C@@H]1COCCN1C2=NC(=NC(=C2)C3(CC3)S(=O)(=O)C)C4=C5C=CNC5=CC=C4
Method in brief: as §1

[4] = compound: C[C@H](C1=CC=C(C=C1)C(=O)NC2=C3C=CNC3=NC=C2)N
Method in brief: as §1

[5] = compound: C[C@H](Nc1ncnc2nc[nH]c12)c1cc2cccc(Cl)c2c(=O)n1-c1ccccc1 [duvelisib]
Method in brief: as §1

[6] = compound: Cc1cc(Nc2cc(CN3CCOCC3)c3nc(C)c(Cc4ccc(Cl)cc4F)n3n2)n[nH]1 [gandotinib]
Method in brief: as §1

[7] = compound: Cc1cc(Nc2cc(N3CCN(C)CC3)nc(Sc3ccc(NC(=O)C4CC4)cc3)n2)n[nH]1 [tozasertib]
Method in brief: as §1

[8] = compound: Cc1cc(SCc2sc(-c3ccc(C(F)(F)F)cc3)nc2C)ccc1OCC(=O)O
Method in brief: as §1

[9] = compound: Cc1ccc(-n2nc(C(C)(C)C)cc2NC(=O)Nc2ccc(OCCN3CCOCC3)c3ccccc23)cc1 [doramapimod]
Method in brief: as §1

[10] = compound: Cc1ccc(C(=O)N(CCCN)[C@@H](c2nc3cc(Cl)ccc3c(=O)n2Cc2ccccc2)C(C)C)cc1 [ispinesib]
Method in brief: as §1

Measured: log2 fold change

ANKMY2 (UniProt Q8IV38)
inactive: [1] -0.033 | [2] 0.03 | [3] 0.086 | [4] 0.009 | [5] 0.031 | [6] -0.042 | [7] 0.014 | [8] 0.035 | [9] -0.028 | [10] 0.064

ANAPC16 (UniProt Q96DE5)
inactive: [1] -0.058 | [2] 0.086 | [3] 0.113 | [4] 0.007 | [5] 0.105 | [6] 0.043 | [7] 0.036 | [8] -0.051 | [9] -0.057 | [10] 0.065

ANXA3 (UniProt P12429)
inactive: [1] -0.035 | [2] -0.026 | [3] 0.084 | [4] -0.041 | [5] 0.111 | [6] -0.055 | [7] -0.024 | [8] 0.044 | [9] 0.02 | [10] -0.006

ARHGEF7 isoform 5 (UniProt Q14155)
inactive: [1] -0.028 | [2] -0.177 | [3] -0.047 | [4] 0.005 | [5] -0.038 | [6] -0.044 | [7] 0.038 | [8] 0.166 | [9] -0.005 | [10] -0.063

Reprinted from the listing (2 entries):
ANAPC16 (UniProt Q96DE5)
inactive: [1] -0.058 | [2] 0.086 | [3] 0.113 | [4] 0.007 | [5] 0.105 | [6] 0.043 | [7] 0.036 | [8] -0.051 | [9] -0.057 | [10] 0.065

ANXA3 (UniProt P12429)
inactive: [1] -0.035 | [2] -0.026 | [3] 0.084 | [4] -0.041 | [5] 0.111 | [6] -0.055 | [7] -0.024 | [8] 0.044 | [9] 0.02 | [10] -0.006

Remaining list, next part:

ARHGAP45 isoform 2 (UniProt Q92619)
inactive: [1] 0.053 | [2] 0.062 | [3] -0.066 | [4] 0.015 | [5] 0.021 | [6] -0.092 | [7] -0.018 | [8] 0.006 | [9] 0.087 | [10] -0.02

API5 isoform 2 (UniProt Q9BZZ5)
inactive: [1] 0.036 | [2] 0.027 | [3] -0.049 | [4] -0.116 | [5] 0.007 | [6] 0 | [7] 0.073 | [8] -0.007 | [9] -0.07 | [10] 0.094

ANKRD28 (UniProt O15084)
inactive: [1] -0.016 | [2] -0.028 | [3] 0.024 | [4] -0.001 | [5] 0.035 | [6] -0.064 | [7] 0.016 | [8] 0.018 | [9] 0.012 | [10] 0.025

ARHGEF1 isoform 3 (UniProt Q92888)
inactive: [1] 0.041 | [2] -0.111 | [3] -0.072 | [4] 0.225 | [5] -0.094 | [6] 0.041 | [7] 0.095 | [8] 0.063 | [9] 0.15 | [10] -0.263

ARIH1 (UniProt Q9Y4X5)
inactive: [1] 0.019 | [2] 0.052 | [3] 0.077 | [4] -0.081 | [5] 0.071 | [6] 0.03 | [7] -0.013 | [8] 0.022 | [9] -0.045 | [10] 0.002

APTX (UniProt Q7Z2E3)
inactive: [1] 0.126 | [2] 0.051 | [3] -0.062 | [4] 0.174 | [5] 0.059 | [6] -0.083 | [8] 0.096 | [9] -0.038

APEX1 (UniProt P27695)
inactive: [1] 0.046 | [2] -0.053 | [3] 0.041 | [4] -0.056 | [5] -0.003 | [6] -0.056 | [7] -0.039 | [8] 0.008 | [9] -0.032 | [10] -0.006

APOO (UniProt Q9BUR5)
inactive: [1] -0.04 | [2] -0.057 | [3] 0.092 | [4] -0.025 | [5] 0.038 | [6] -0.1 | [7] 0.007 | [8] -0.025 | [9] -0.035 | [10] -0.052

ANXA1 (UniProt P04083)
inactive: [1] 0.067 | [2] 0.004 | [3] 0.057 | [4] -0.038 | [5] 0.029 | [6] -0.084 | [7] 0.08 | [8] 0.072 | [9] -0.062 | [10] 0.001

ANO6 isoform 2 (UniProt Q4KMQ2)
inactive: [1] 0.034 | [2] -0.033 | [3] 0.176 | [4] -0.163 | [5] 0.052 | [6] -0.121 | [7] -0.024 | [8] -0.015 | [9] -0.035 | [10] -0.159

AP5Z1 (UniProt O43299)
inactive: [1] 0.074 | [2] -0.005 | [3] -0.104 | [4] 0.104 | [5] 0.062 | [6] -0.321 | [7] -0.093 | [8] -0.058 | [9] -0.048 | [10] -0.188

API5 (UniProt Q9BZZ5)
inactive: [1] 0.014 | [2] 0.013 | [3] 0.079 | [4] -0.026 | [5] 0.019 | [6] -0.013 | [7] -0.014 | [8] -0.019 | [9] -0.046 | [10] 0.101

AP3M1 (UniProt Q9Y2T2)
inactive: [1] 0.012 | [2] -0.117 | [3] 0.012 | [4] 0.007 | [5] -0.015 | [6] -0.081 | [7] 0.011 | [8] 0.055 | [9] -0.005 | [10] -0.027

ARF5 (UniProt P84085)
inactive: [1] 0.034 | [2] 0.035 | [3] 0.064 | [4] -0.071 | [5] 0.056 | [6] -0.058 | [7] -0.022 | [8] -0.069 | [9] -0.02 | [10] 0.023

AP4S1 (UniProt Q9Y587)
inactive: [1] -0.027 | [2] -0.028 | [3] 0.065 | [4] 0.133 | [8] 0.013 | [9] -0.088

ANAPC2 (UniProt Q9UJX6)
inactive: [1] -0.025 | [2] -0.084 | [3] 0.034 | [4] 0.035 | [6] -0.044 | [8] 0.028 | [9] 0.022 | [10] -0.02

ARFIP1 (UniProt P53367)
inactive: [1] 0.833 | [2] -0.309 | [3] 0.026 | [4] -0.061 | [6] -0.223 | [8] 0.014 | [9] 0 | [10] -0.232

AP2S1 (UniProt P53680)
inactive: [1] -0.022 | [2] -0.106 | [3] 0.453 | [4] -0.151 | [6] -0.046 | [8] 0.046 | [9] 0.031 | [10] 0.077

AP2A2 isoform 2 (UniProt O94973)
inactive: [1] 0.022 | [2] -0.076 | [3] -0.033 | [4] -0.186 | [6] -0.057 | [8] -0.021 | [9] 0.03 | [10] 0.024

APLP2 (UniProt Q06481)
inactive: [1] 0 | [2] 0.032 | [3] -0.012 | [4] -0.035 | [6] 0.117 | [8] -0.049 | [9] 0.049 | [10] 0.16

ANXA5 (UniProt P08758)
inactive: [1] 0.03 | [2] 0.045 | [3] 0.108 | [4] -0.002 | [6] -0.083 | [8] 0.052 | [9] -0.059 | [10] 0.006

ANKFY1 isoform 4 (UniProt Q9P2R3)
inactive: [1] -0.098 | [2] -0.007 | [3] -0.24 | [4] 0.085 | [6] -0.029 | [7] 0.122 | [9] 0.048 | [10] -0.171
